No constants are given. Whether binding was seen depends on the method and setting. Some results given as binding are weak or reduced against the parent protein; the word gives no strength.
Biological target: N.crassa E2 in the native pyruvate dehydrogenase complex (N.crassa) (UniProt P20285)
Assay: cryo-EM structure; native PDC data EMPIAR-10489 reprocessed; symmetry-expanded consensus alignments only, C3 symmetry, 4.1 Å

B1: N.crassa E2 in the native pyruvate dehydrogenase complex (enzyme, UniProt P20285 29-458)
chain: ASYPPHTVVKMPALSPTMTSGGIGAWQKKPGDKIEPGEVLVEIETDKAQMDFEFQEEGVLAKILKDSGEKDVAVGNPIAILVEEGTDVNAFKDFTLKDAGGETSPAVPKDEPKNESTASAPTPAPTPAPEPENTSFTGRFQTALEREPNALPAAKRLAREKGIDLRNVKGSGPGGKITEEDVKKALASAPAAGAAAAAYTDVPISGMRKTIAARLKESVTENPHFFVSTNLSVSKLLKLRQALNSSADGRYKLSVNDFLIKAMGIASKRVPTVNSSWRDGVIRQFETVDVSVAVATPNGLITPIVKGVEGKGLESISAAVKELAKKARDGKLKPEEYQGGSISISNMGMNPAVQSFTAIINPPQAAILAVGAPQKVAVPVENEDGTTGVSWDEQIIVTASFDHKVVDGAVGAEWIRELKKVIENPLELLL
For B1, the binding was “binds”.
